Measurements reported in the supplement of paper PMC8728848.
Some of the results follow.

Legend:
Experiment in all cases: glycan array binding signal (z-score within array); higher = stronger binding
Conditions in all cases: glycan notation: IUPAC condensed, linker removed
Fuc(a1-2)Gal = molecular target: Fuc(a1-2)Gal
Summary of the method: (§1)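 Arrays were curated from the Consortium for Functional Glycomics database, 3228 in total, and kept only where the protein sequence was available. Binding is expressed as a within-array Z-score. This score was averaged across arrays of the same protein sequence at different concentrations or buffers and across linkers, and negative values can be read as non-binding.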

Fuc(a1-2)Gal(b1-3)GalNAc = molecular target: Fuc(a1-2)Gal(b1-3)GalNAc
Summary of the method: as §1

[1] = molecular target: Fuc(a1-2)Gal(b1-3)GalNAc(a1-3)[Fuc(a1-2)]Gal(b1-4)Glc
Summary of the method: as §1

[2] = molecular target: Fuc(a1-2)Gal(b1-3)GalNAc(a1-3)[Fuc(a1-2)]Gal(b1-4)GlcNAc
Summary of the method: as §1

[3] = molecular target: Fuc(a1-2)Gal(b1-3)GalNAc(b1-3)Gal
Summary of the method: as §1

[4] = molecular target: Fuc(a1-2)Gal(b1-3)GalNAc(b1-3)Gal(a1-4)Gal(b1-4)Glc
Summary of the method: as §1

[5] = molecular target: Fuc(a1-2)Gal(b1-3)GalNAc(b1-4)[Neu5Ac(a2-3)]Gal(b1-4)Glc
Summary of the method: as §1

Fuc(a1-2)Gal(b1-3)GlcNAc = molecular target: Fuc(a1-2)Gal(b1-3)GlcNAc
Summary of the method: as §1

[6] = molecular target: Fuc(a1-2)Gal(b1-3)GlcNAc(b1-2)Man(a1-3)[Fuc(a1-2)Gal(b1-3)GlcNAc(b1-2)Man(a1-6)]Man(b1-4)GlcNAc(b1-4)GlcNAc
Summary of the method: as §1

[7] = molecular target: Fuc(a1-2)Gal(b1-3)GlcNAc(b1-2)Man(a1-3)[Fuc(a1-2)Gal(b1-3)GlcNAc(b1-2)Man(a1-6)]Man(b1-4)GlcNAc(b1-4)[Fuc(a1-6)]GlcNAc
Summary of the method: as §1

[8] = molecular target: Fuc(a1-2)Gal(b1-3)GlcNAc(b1-3)Gal(b1-4)Glc
Summary of the method: as §1

[9] = molecular target: Fuc(a1-2)Gal(b1-3)GlcNAc(b1-3)GalNAc
Summary of the method: as §1

[10] = molecular target: Fuc(a1-2)Gal(b1-3)GlcNAc(b1-3)[Fuc(a1-2)Gal(b1-3)GlcNAc(b1-6)]GalNAc
Summary of the method: as §1

[11] = molecular target: Fuc(a1-2)Gal(b1-3)GlcNAc(b1-3)[Gal(b1-4)GlcNAc(b1-6)]Gal(b1-4)Glc
Summary of the method: as §1

[12] = molecular target: Fuc(a1-2)Gal(b1-3)GlcNAc(b1-3)[Gal(b1-4)[Fuc(a1-3)]GlcNAc(b1-6)]Gal(b1-4)Glc
Summary of the method: as §1

[13] = molecular target: Fuc(a1-2)Gal(b1-3)GlcNAc(b1-3)[Neu5Ac(a2-6)Gal(b1-4)GlcNAc(b1-6)]Gal(b1-4)Glc
Summary of the method: as §1

[14] = molecular target: Fuc(a1-2)Gal(b1-3)GlcNAc6S
Summary of the method: as §1

[15] = molecular target: Fuc(a1-2)Gal(b1-3)[Fuc(a1-4)]GlcNAc
Summary of the method: as §1

[16] = molecular target: Fuc(a1-2)Gal(b1-3)[Fuc(a1-4)]GlcNAc(b1-2)Man(a1-3)[Fuc(a1-2)Gal(b1-3)[Fuc(a1-4)]GlcNAc(b1-2)Man(a1-3)]Man(b1-4)GlcNAc(b1-4)GlcNAc
Summary of the method: as §1

[17] = molecular target: Fuc(a1-2)Gal(b1-3)[Fuc(a1-4)]GlcNAc(b1-2)Man(a1-3)[Fuc(a1-2)Gal(b1-3)[Fuc(a1-4)]GlcNAc(b1-2)Man(a1-6)]Man(b1-4)GlcNAc(b1-4)GlcNAc
Summary of the method: as §1

[18] = molecular target: Fuc(a1-2)Gal(b1-3)[Fuc(a1-4)]GlcNAc(b1-2)Man(a1-3)[Fuc(a1-2)Gal(b1-3)[Fuc(a1-4)]GlcNAc(b1-2)Man(a1-6)]Man(b1-4)GlcNAc(b1-4)[Fuc(a1-6)]GlcNAc(b1-4)[Fuc(a1-6)]GlcNAc
Summary of the method: as §1

[19] = molecular target: Fuc(a1-2)Gal(b1-3)[Fuc(a1-4)]GlcNAc(b1-3)[Fuc(a1-3)[Gal(b1-4)]GlcNAc(b1-6)]Gal(b1-4)Glc
Summary of the method: as §1

[20] = molecular target: Fuc(a1-2)Gal(b1-3)[Fuc(a1-4)]GlcNAc(b1-3)[Gal(b1-4)GlcNAc(b1-6)]Gal(b1-4)Glc
Summary of the method: as §1

[21] = molecular target: Fuc(a1-2)Gal(b1-4)Fuc(a1-3)]GlcNAc(b1-2)Man(a1-3)[Fuc(a1-2)Gal(b1-4)[Fuc(a1-3)]GlcNAc(b1-2)Man(a1-6)]Man(b1-4)GlcNAc(b1-4)GlcNAc
Summary of the method: as §1

Fuc(a1-2)Gal(b1-4)Glc = molecular target: Fuc(a1-2)Gal(b1-4)Glc
Summary of the method: as §1

Fuc(a1-2)Gal(b1-4)Glc6S = molecular target: Fuc(a1-2)Gal(b1-4)Glc6S
Summary of the method: as §1

Fuc(a1-2)Gal(b1-4)GlcNAc = molecular target: Fuc(a1-2)Gal(b1-4)GlcNAc
Summary of the method: as §1

[22] = molecular target: Fuc(a1-2)Gal(b1-4)GlcNAc(b1-2)Man
Summary of the method: as §1

[23] = molecular target: Fuc(a1-2)Gal(b1-4)GlcNAc(b1-2)Man(a1-3)[Fuc(a1-2)Gal(b1-4)GlcNAc(b1-2)Man(a1-6)]Man(b1-4)GlcNAc(b1-4)GlcNAc
Summary of the method: as §1

[24] = molecular target: Fuc(a1-2)Gal(b1-4)GlcNAc(b1-2)Man(a1-3)[Fuc(a1-2)Gal(b1-4)GlcNAc(b1-2)Man(a1-6)]Man(b1-4)GlcNAc(b1-4)[Fuc(a1-6)]GlcNAc
Summary of the method: as §1

B1: BabA (Helicobacter pylori), O52269_HELPY (protein)
chain: AEDDGFYMSAGYQIGEAAQMVKNTKGIQELSDNYENLSNLLTRYSTLNTLIKLSADPSAVNAARENLGASAKNLIGDTKNSPAYQAVLLAINAAVGFWNVVGYVTQCGGNANGQKSTSSTTIFNNEPGYRSTSITCSLNGHMPGYYGPMSIENFKKLNEAYQILQTALKNGLPALKENNGTVNVTYSYTCSGEGNDNCSLQTTGVTNQNNGTKTETQTIDGKSVTTTISSKVVDSQ
What does the source list for B1?
glycan array binding signal (z-score) (Fuc(a1-2)Gal): -0.534; glycan array binding signal (z-score) (Fuc(a1-2)Gal(b1-3)GalNAc): 0.072; glycan array binding signal (z-score) [1]: -0.546; glycan array binding signal (z-score) [2]: -0.655; glycan array binding signal (z-score) [3]: -0.369; glycan array binding signal (z-score) [4]: 0.152; glycan array binding signal (z-score) [5]: 0.223; glycan array binding signal (z-score) (Fuc(a1-2)Gal(b1-3)GlcNAc): -0.531; glycan array binding signal (z-score) [6]: 1.1; glycan array binding signal (z-score) [7]: -0.237; glycan array binding signal (z-score) [8]: -0.27; glycan array binding signal (z-score) [9]: 0.508; glycan array binding signal (z-score) [10]: 0.335; glycan array binding signal (z-score) [11]: -0.409; glycan array binding signal (z-score) [12]: -1.21; glycan array binding signal (z-score) [13]: -0.173; glycan array binding signal (z-score) [14]: -0.328; glycan array binding signal (z-score) [15]: -0.29; glycan array binding signal (z-score) [16]: 1.34; glycan array binding signal (z-score) [17]: -0.775; glycan array binding signal (z-score) [18]: 0.081; glycan array binding signal (z-score) [19]: -0.182; glycan array binding signal (z-score) [20]: -0.21; glycan array binding signal (z-score) [21]: 3.3; glycan array binding signal (z-score) (Fuc(a1-2)Gal(b1-4)Glc): -0.228; glycan array binding signal (z-score) (Fuc(a1-2)Gal(b1-4)Glc6S): 0.321; glycan array binding signal (z-score) (Fuc(a1-2)Gal(b1-4)GlcNAc): 0.041; glycan array binding signal (z-score) [22]: 0.472; glycan array binding signal (z-score) [23]: -0.299; glycan array binding signal (z-score) [24]: 0.69
